# The list shows a part of the results. These are further read-outs of the screen, such as a control signal, another cell line or another target. No call is given for them. The list favours compounds with an active or inconclusive main result. Potencies come from curve fits of mixed quality, noted in brackets.
# Test: qHTS Assay for Lipid Storage Modulators in Drosophila S3 Cells;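 for cell number change: cells counted by Cell Tracker Red CMTPX staining in the red channel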
# Details: BODIPY lipid droplet fluorescence, 18-24 h; for cell number change: measured here: cell count max response, cells fed with added oleic acid
# Summary of the method: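 Laser-scanning cytometry quantifies lipid droplet accumulation (500–530 nm total intensity; droplet/cell object ratio) in oleic acid-fed (400 uM added) Drosophila S3 cells treated with a concentration series. 20 uM Triacsin C defined 100% inhibition.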
# [1] = measured here: cell number channel AC50, cells fed with added oleic acid
# [2] = measured here: lipid fluorescence (Fed channel) AC50, cells fed with added oleic acid
compound,measurement,setting,value
CCC(C)NC(=O)CN1C(=O)CC(C)(C)S(=O)(=O)c2ccccc21 (stereo not drawn),cell number change,,13.9%
COc1ccccc1C(=O)n1nc(C)cc1C,cell number change,,30.9%
CN1CCN(/N=C/c2cccc(Cl)c2Cl)CC1,cell number change,,-4.64%
same,AC50,[1],"2.31 µM [falling, single point]"
same,AC50,[2],"2.31 µM [falling, partial curve]"
CCOC(=O)N1CCC2(CC1)CC(=O)c1cc(O)ccc1O2,cell number change,,-10.1%
same,AC50,[1],"0.164 µM [falling, full curve, poor fit]"
same,AC50,[2],"5.8 µM [falling, single point]"
COCCn1c(SCc2ccc(C(=O)OC)o2)nnc1-c1c[nH]c2ccccc12,cell number change,,46.3%
same,AC50,[1],"4.11 µM [rising, full curve, poor fit]"
same,AC50,[2],"4.11 µM [rising, partial curve, poor fit]"
COc1cc(/C=N/Nc2nc(C)cc(C)n2)ccc1OC(=O)c1ccco1,cell number change,,8.92%
COC(=O)c1cnn(C(=O)c2ccccc2Br)c1N,cell number change,,-17%
same,AC50,[2],"23.1 µM [falling, single point]"
O=C(CCc1ccccc1)NCCS(=O)(=O)N1CCN(c2ccccc2)CC1,cell number change,,9.73%
COc1cc(OC)cc(C(=O)OCCCOC(=O)c2cc(OC)cc(OC)c2)c1,cell number change,,4.11%
same,AC50,[1],"6.51 µM [rising, single point]"
O=C(O)CSc1nc(SCc2ccccc2Cl)nc2c1CCCC2,cell number change,,18.9%
same,AC50,[2],"2.91 µM [rising, single point]"
Cc1nnc(SCC(=O)NC(=O)NCCC(C)C)s1,cell number change,,36.5%
same,AC50,[1],"0.116 µM [rising, full curve, poor fit]"
same,AC50,[2],"0.13 µM [rising, full curve, poor fit]"
CC1(C)CC(=O)C2=C(C1)OC(N)=C([N+](=O)[O-])C2c1ccc(C#N)s1 (stereo not drawn),cell number change,,-11.8%
same,AC50,[2],"16.4 µM [falling, single point]"
O=C(COc1ccc([N+](=O)[O-])cc1)NC(C(=O)O)C(O)c1cccc([N+](=O)[O-])c1 (stereo not drawn),cell number change,,4.39%
same,AC50,[2],"3.66 µM [rising, single point]"
O=C(NCC(c1cccs1)N1CCOCC1)c1cc(S(=O)(=O)N2CCOCC2)ccc1F (stereo not drawn),cell number change,,27.5%
Clc1ccc(-c2noc(CSc3nnc(-c4ccncc4)n3-c3ccccc3)n2)cc1,cell number change,,4.65%
same,AC50,[1],"1.46 µM [rising, partial curve]"
same,AC50,[2],"4.11 µM [rising, partial curve, poor fit]"
CCOP(=O)(OCC)C(Nc1ccccc1)c1cccnc1 (stereo not drawn),cell number change,,19.6%
same,AC50,[2],"11.6 µM [rising, partial curve]"
Cc1c(Cl)cccc1NC(=O)c1cc(C2CC2)on1,cell number change,,19.1%

# Retrieved one by one from the entries so far (two):
compound,measurement,setting,value
Cc1nnc(SCC(=O)NC(=O)NCCC(C)C)s1,cell number change,,36.5%
COC(=O)c1cnn(C(=O)c2ccccc2Br)c1N,AC50,[2],"23.1 µM [falling, single point]"

# From PubChem BioAssay AID2685 (National Center for Advancing Translational Sciences (NCATS), 2010)
